In paper PMC9220252 one finds binding data, which are given here for 4 molecules.

Chains of the proteins cited; added tags and fusions are not shown.
UniProt P52480: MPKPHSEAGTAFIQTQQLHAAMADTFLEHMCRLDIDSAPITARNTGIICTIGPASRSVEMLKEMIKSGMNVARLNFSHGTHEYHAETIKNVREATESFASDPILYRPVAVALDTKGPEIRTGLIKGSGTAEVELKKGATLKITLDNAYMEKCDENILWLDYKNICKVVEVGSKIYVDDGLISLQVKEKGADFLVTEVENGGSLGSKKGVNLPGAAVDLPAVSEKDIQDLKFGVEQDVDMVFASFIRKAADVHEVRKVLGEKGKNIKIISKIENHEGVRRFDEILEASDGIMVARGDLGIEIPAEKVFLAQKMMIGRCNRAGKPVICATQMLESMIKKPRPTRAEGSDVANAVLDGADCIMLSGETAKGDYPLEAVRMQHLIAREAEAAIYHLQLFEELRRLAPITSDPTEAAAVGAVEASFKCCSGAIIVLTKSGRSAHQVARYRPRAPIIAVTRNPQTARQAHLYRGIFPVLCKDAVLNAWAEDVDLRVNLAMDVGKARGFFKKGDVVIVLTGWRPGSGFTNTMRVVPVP
UniProt P11980: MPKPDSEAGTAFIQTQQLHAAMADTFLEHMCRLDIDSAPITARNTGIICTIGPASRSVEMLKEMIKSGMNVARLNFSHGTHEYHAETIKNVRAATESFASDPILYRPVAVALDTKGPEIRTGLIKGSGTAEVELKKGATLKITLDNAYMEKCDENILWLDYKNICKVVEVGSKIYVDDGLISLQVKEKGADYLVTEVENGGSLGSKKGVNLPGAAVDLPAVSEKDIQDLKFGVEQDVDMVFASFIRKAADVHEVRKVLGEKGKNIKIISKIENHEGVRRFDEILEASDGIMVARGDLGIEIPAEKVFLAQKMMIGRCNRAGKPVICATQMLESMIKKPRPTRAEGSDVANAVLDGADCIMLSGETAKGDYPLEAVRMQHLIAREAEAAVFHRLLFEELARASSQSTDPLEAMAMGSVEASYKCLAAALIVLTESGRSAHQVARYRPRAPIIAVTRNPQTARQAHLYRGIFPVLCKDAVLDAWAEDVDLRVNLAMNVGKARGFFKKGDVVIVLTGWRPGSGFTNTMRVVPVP
UniProt P14618: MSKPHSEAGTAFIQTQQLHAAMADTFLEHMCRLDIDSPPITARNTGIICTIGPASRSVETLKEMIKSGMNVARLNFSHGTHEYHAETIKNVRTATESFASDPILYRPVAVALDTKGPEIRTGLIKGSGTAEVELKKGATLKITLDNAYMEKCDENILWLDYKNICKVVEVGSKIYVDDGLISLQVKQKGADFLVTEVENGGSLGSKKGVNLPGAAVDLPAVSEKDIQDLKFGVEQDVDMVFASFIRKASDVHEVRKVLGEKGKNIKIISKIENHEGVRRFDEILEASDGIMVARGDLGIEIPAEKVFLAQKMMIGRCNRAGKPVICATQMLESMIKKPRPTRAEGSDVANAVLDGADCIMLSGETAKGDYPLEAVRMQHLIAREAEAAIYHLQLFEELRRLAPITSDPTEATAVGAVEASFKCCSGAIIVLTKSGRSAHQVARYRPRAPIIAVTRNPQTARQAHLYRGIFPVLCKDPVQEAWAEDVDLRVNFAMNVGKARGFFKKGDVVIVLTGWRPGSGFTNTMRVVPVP

Numbering of substitutions follows the chain as printed. These are yes or no findings as the source states them, for the method shown. Binding seen in cells or lysates may run through a third protein. Some entries that bind do so weakly or less than the wild type.

Test [1] deals with Pyruvate kinase M2 (PKM2), mouse cell lines (mouse (endogenous in Hepa1c1c7 and 4T1)) (UniProt P52480). As to the kind of experiment: co-IP; 4T1 cells treated with LPS (10 µg/mL at 4 h); PKM2 immunoprecipitated; Western blotting.
For test [2] the target is unchanged. The test can be described thus: co-IP; immunoprecipitation with PKM2 antibody from lysates of Hepa1c1c7 cells stimulated with insulin (100 nM, indicated time); Western blotting.
Test [3] deals with PKM1, normal rat liver (rat (endogenous in liver)) (UniProt P11980). As to the kind of experiment: co-IP; liver of rats treated with insulin (10 U/kg body weight for 2 h); immunoprecipitated with PKM1 antibody, blotted with p-PDHA1 antibody.
The target in test [4] is Pyruvate kinase M2 (PKM2), HepG2 cells (human (endogenous in HepG2)) (UniProt P14618). The test can be described thus: co-IP; endogenous proteins immunoprecipitated with specific antibody and protein A/G beads from lysates of HepG2 cells stimulated with insulin (100 nM); SDS-PAGE and Western blotting.
For test [5], the target named is Pyruvate kinase M2 (PKM2), HepG2 cells (human (endogenous in HepG2)), P14618. The test is described as above. Particulars: remark: other sources report otherwise.

B1: p-Ser293 PDHA1 (p-PDHA1), mouse cell lines (protein, UniProt P35486 30-390)
chain: FANDATFEIKKCDLHRLEEGPPVTTVLTREDGLKYYRMMQTVRRMELKADQLYKQKIIRGFCHLCDGQEACCVGLEAGINPTDHLITAYRAHGFTFTRGLPVRAILAELTGRRGGCAKGKGGSMHMYAKNFYGGNGIVGAQVPLGAGIALACKYNGKDEVCLTLYGDGAANQGQIFEAYNMAALWKLPCIFICENNRYGMGTSVERAAASTDYYKRGDFIPGLRVDGMDILCVREATKFAAAYCRSGKGPILMELQTYRYHGHSMSDPGVSYRTREEIQEVRSKSDPIMLLKDRMVNSNLASVEELKEIDVEVRKEIEDAAQFATADPEPPLEELGYHIYSSDPPFEVRGANQWIKFKSVS
modifications: phosphoserine at Ser293
On to B1, for which the binding entry in test [1] and in test [2] was “binds” each time.

B2: p-Ser293 PDHA1 (p-PDHA1), normal rat liver (protein, UniProt P26284 30-390)
chain: B1 chain with T97N, L100H, P101A
modifications: phosphoserine at Ser293
Consider B2, for which the binding result in test [3] is on record as “no binding”.

B3: PDC E3 subunit (dihydrolipoyl dehydrogenase E3), HepG2 cells (protein, UniProt P09622 36-509)
chain: ADQPIDADVTVIGSGPGGYVAAIKAAQLGFKTVCIEKNETLGGTCLNVGCIPSKALLNNSHYYHMAHGKDFASRGIEMSEVRLNLDKMMEQKSTAVKALTGGIAHLFKQNKVVHVNGYGKITGKNQVTATKADGGTQVIDTKNILIATGSEVTPFPGITIDEDTIVSSTGALSLKKVPEKMVVIGAGVIGVELGSVWQRLGADVTAVEFLGHVGGVGIDMEISKNFQRILQKQGFKFKLNTKVTGATKKSDGKIDVSIEAASGGKAEVITCDVLLVCIGRRPFTKNLGLEELGIELDPRGRIPVNTRFQTKIPNIYAIGDVVAGPMLAHKAEDEGIICVEGMAGGAVHIDYNCVPSVIYTHPEVAWVGKSEEQLKEEGIEYKVGKFPFAANSRAKTNADTDGMVKILGQKSTDRVLGAHILGPGAGEMVNEAALALEYGASCEDIARVCHAHPTLSEAFREANLAASFGKSINF
B3: the binding result in test [4] was “no binding”.

B4: PDC E2 subunit (dihydrolipoyl transacetylase E2), HepG2 cells, P10515 87-647 (protein)
chain: SLPPHQKVPLPSLSPTMQAGTIARWEKKEGDKINEGDLIAEVETDKATVGFESLEECYMAKILVAEGTRDVPIGAIICITVGKPEDIEAFKNYTLDSSAAPTPQAAPAPTPAATASPPTPSAQAPGSSYPPHMQVLLPALSPTMTMGTVQRWEKKVGEKLSEGDLLAEIETDKATIGFEVQEEGYLAKILVPEGTRDVPLGTPLCIIVEKEADISAFADYRPTEVTDLKPQVPPPTPPPVAAVPPTPQPLAPTPSAPCPATPAGPKGRVFVSPLAKKLAVEKGIDLTQVKGTGPDGRITKKDIDSFVPSKVAPAPAAVVPPTGPGMAPVPTGVFTDIPISNIRRVIAQRLMQSKQTIPHYYLSIDVNMGEVLLVRKELNKILEGRSKISVNDFIIKASALACLKVPEANSSWMDTVIRQNHVVDVSVAVSTPAGLITPIVFNAHIKGVETIANDVVSLATKAREGKLQPHEFQGGTFTISNLGMFGIKNFSAIINPPQACILAIGASEDKLVPADNEKGFDVASMMSVTLSCDHRVVDGAVGAQWLAEFRKYLEKPITMLL
For the molecule B4, in test [5], the binding entry is given as “no binding”.
